No constants are given. Whether binding was seen depends on the method and setting. In cells and extracts the contact can be indirect. Here binding means that the protein was enriched with, or labelled near, the bait; the list need not be complete.

The chains behind the UniProt entries cited, without tags or fusion partners.
UniProt P48741: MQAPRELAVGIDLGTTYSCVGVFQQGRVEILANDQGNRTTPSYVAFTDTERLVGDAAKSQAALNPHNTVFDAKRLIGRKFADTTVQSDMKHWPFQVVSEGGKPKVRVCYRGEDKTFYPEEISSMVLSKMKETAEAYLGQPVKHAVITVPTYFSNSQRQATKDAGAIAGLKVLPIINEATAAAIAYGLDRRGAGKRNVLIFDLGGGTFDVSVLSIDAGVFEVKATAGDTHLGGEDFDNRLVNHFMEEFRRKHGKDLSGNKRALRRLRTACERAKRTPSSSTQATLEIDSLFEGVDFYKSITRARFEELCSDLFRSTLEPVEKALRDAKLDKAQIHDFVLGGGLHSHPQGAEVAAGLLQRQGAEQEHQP
UniProt Q58FF6: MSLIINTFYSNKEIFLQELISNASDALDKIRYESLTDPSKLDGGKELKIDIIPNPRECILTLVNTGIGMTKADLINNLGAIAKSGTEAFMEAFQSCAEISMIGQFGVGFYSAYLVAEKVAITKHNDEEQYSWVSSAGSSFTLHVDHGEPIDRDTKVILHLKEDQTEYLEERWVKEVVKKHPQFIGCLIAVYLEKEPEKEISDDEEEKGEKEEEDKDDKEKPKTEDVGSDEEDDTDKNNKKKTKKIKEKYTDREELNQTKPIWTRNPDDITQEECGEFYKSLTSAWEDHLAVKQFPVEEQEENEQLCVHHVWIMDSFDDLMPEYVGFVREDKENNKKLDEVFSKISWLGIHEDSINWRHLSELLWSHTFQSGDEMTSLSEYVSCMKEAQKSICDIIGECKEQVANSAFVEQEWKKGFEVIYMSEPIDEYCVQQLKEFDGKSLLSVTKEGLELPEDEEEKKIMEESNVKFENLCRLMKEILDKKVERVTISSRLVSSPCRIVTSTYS
UniProt P51665: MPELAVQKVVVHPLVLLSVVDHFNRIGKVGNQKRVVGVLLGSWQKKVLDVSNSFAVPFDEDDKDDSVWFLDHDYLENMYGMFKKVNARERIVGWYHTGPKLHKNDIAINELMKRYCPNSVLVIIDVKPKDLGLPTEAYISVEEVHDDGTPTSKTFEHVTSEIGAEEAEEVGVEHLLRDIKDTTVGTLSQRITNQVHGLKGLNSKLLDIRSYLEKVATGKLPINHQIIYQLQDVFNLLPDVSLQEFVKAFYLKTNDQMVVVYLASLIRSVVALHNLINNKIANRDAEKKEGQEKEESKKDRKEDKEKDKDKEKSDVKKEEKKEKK

Our source for the binding values is PMC7688965.

For the test, the target named is HA-tagged WT Hop (human) (UniProt P31948). Kind of test: affinity purification with mass spectrometry; HA-IP of HA-tagged WT Hop or TPR double mutant exogenously overexpressed in HEK293T Hop KO1 cells; label-free LC/MS-MS, iBAQ normalised on the abundance of Hop; compared with control IP and with the TPR double mutant.
As for HSP7 (from UniProt P48741 1-367), the binding entry was “binds”.
HSP90AB4P (from UniProt Q58FF6 1-505): the binding entry is on record as “binds”.
For PSMD7 (from UniProt P51665 1-324), the binding result is “binds”.
With PSMD14 (from UniProt O00487 1-310), the binding result was “binds”.
